About 210 (0.4%) of roughly 52,000 sequences were called active.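 Rule for the calls: active = gene whose silencing raises cell survival under the drug, median off-target-corrected z-score across its silencing RNAs 2 or more; inactive = the rest.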 The list shows a part of the results.

A short description of this experiment: Resistance to Poly (ADP-Ribose) Polymerase inhibitor: Gene Identification via Genome-wide siRNA Screen. The following applies: mouse BRCA2 R2336H ES cells, olaparib, CellTiter-Glo viability; hits give high values. An outline of the steps: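 Mouse BRCA2 R2336H ES cells were reverse-transfected with siRNA (20 nM final), treated at 48 h with 500 nM olaparib, and read by CellTiter-Glo after 72 h. Scores: MAD-based z per siRNA, median per gene, seed off-target correction.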
On the technique in general: In ATP-based viability assays light output follows the ATP content of the culture.
As for “CCAGAUUGUCACUUGCUACTT against A430090E18Rik”, the z-score is inactive: 0.499.
Regarding “CCUAGUCAUAUUCUACAGUTT against 4931409K22Rik”, the z-score was inactive: -1.06.
As to CCCAAAAGUUUUUACAGCUTT against Ttpa, the z-score was inactive: 0.0903.
Then GAAGAGGGCACCUAGUUUCTT against Cox7b, with inactive: -0.211.
For the sequence “GGAAGUGACAUCACAGACGTT against 1810009N02Rik”, the z-score was inactive: -0.298.
The value for GGAAAUUCUUUGGUGAAAUTT against Wbscr17 was inactive: -0.364; that for “CGAUUUCUGCUCCUCAUUUTT against 9130019O22Rik” was inactive: 1.96.
The value for GUUUCCGGUCAGAGUGUGATT against Stard10 was inactive: -1.78.
The value for GGCAAGUGGCUCUUUGGUGTT against Cysltr1 was inactive: 0.535; that for GGACAAAGAAAAUACGAAATT against Olfr593 was inactive: 0.121; that for GGUUGAGUAGUUGAUUUUCTT against Hemgn was inactive: 0.915.
In the case of GCAAGCUAUCAGGUGCAGUTT against Rnpepl1, the z-score was inactive: -0.707.
The value for GGGUAAACCUCUCUUGUUATT against Hs3st3a was inactive: 1.06; that for GCCUUUGUUAAUGUUCGCUTT against H28 was inactive: 0.488.
Then GGUGGCACGAUGCUAUGUUTT against Gpr109b, with inactive: -1.86; and CGAGAGAGUGUUACCAUCGTT against Prkcn, with inactive: 1.44.
The value for GAACUGACUUCACAUAAAGTT against Nrtn was inactive: 1.09.
Take “GGAGAGAACUUGUUCAUGATT against 4833432P19Rik”: the z-score is inactive: -0.896.
The value for “CCUAUACCUUGGACUUCCGTT against 1700018O18Rik” was inactive: 2.13; that for CCACCCUAAUCCAUUUUUGTT against BC053917 was inactive: 0.0441; that for GGAUACCUUCCUCUUACACTT against Bloc1s3 was inactive: -0.356.
With GCCAGUGGUGCUAGCAGAUTT against Mtnr1a, the z-score was inactive: -0.707.
The value for GGGCAUGAAUGGUUACUUATT against Mllt6 was inactive: 1.46; that for CGACCAGACACGGAAUGUATT against Mbnl1 was inactive: -2.68.
Regarding “GGCCAUACGCAAGCUCAAGTT against 6430402L03Rik”, the z-score was inactive: -2.18.
With CCAGUCUCCGCCUCAGUAATT against Gm720, the z-score was inactive: 0.171.
With GGAUUUUUAUGAUAGUGACTT against Slc4a1ap, the z-score is inactive: 0.172.
As to GCAUUUGUACAUUGUGACUTT against Gm503, the z-score is inactive: -0.893.
The value for CGCUAGCUUAUUUUCCGCCTT against Dirc2 was inactive: 0.274; that for GCCAUGAAGCUAAAUAAUCTT against Optn was inactive: -0.261; that for GGGUGUAUUACCUCUCUCUTT against Pygl was inactive: 0.595.
The value for GGAGAAAAGGAAGUUGAGGTT against Bnip3l was inactive: 1.23.
The value for “CGUAAAGCUUCCUGUGUCUTT against 5230400J09Rik” was inactive: -0.343.
For GGUGCACAAUUGACAACCGTT against Hnt, the z-score was inactive: 0.128.
“GGCCUAAUUUGAAUAACACTT against 4933436I01Rik”: the z-score is inactive: -0.322.
Then GCCCAACCUGUAUUGGAUCTT against Icosl, with inactive: -0.114; and GCAGAAAGAAUGACAUUCCTT against Cfc1, with inactive: -1.15.
Then GGCAACUUGUUCCAGCAAUTT against Pdcd8, with inactive: -0.674; and GGGACUGGCACCAUUUGUUTT against Cetn4, with inactive: -1.05.
Then “GGAGAUCGACGCGUGUAUCTT against 2700029E10Rik”, with inactive: 0.406; and GGGUCAGAACACGUACGAGTT against Gnaz, with inactive: 1.12.
For the sequence CGCCGUUGGUUUGCCAGAATT against Defb40, the z-score was inactive: -1.28.
With GGCAAAACUCACACUUACUTT against Poldip2, the z-score is inactive: 0.372.
With GGUUAAUGAUAAGAACCCATT against Hgs, the z-score was inactive: -0.759.
The value for “GGUGAAGACUGGAACAAGATT against A930012M17” was inactive: -0.699; that for GGUUGAUGCAUCAUUCCUATT against Adamts1 was inactive: 2.17.
As for CCAUCUCCCUACUAGGUUGTT against Olfr49, the z-score was inactive: 0.136.
Then GGCUACCAAGUUUCAUCAUTT against Tbx22, with inactive: 1.61.
For the sequence “CCUAAUCUAGAGCAACACATT against B230218L05Rik”, the z-score is inactive: 0.327.
The value for CGGAUACCUAGAGUGCAUCTT against Zfp42 was inactive: 0.0634; that for GCUAGCCAGUGCAUUCACATT against Srp68 was inactive: -1.82; that for GGAUAUGUGAAAUGCAUUGTT against Asb9 was inactive: -0.173.
The value for GCUAAAACCCGUUACUUCCTT against Gsta4 was inactive: 0.385.
Then “GGAAGGAAGUGGAAAUGAGTT against 2700008N14Rik”, with inactive: -0.0328.
As for “GGAGCGAGGUACAACUGAATT against A430031N04”, the z-score is inactive: -2.35.
Then GGUAAAAGAAGCUCUAAAGTT against Olfr449, with inactive: 0.259; and GCCAUGUGUAUGGUAGUCUTT against Olfr1247, with inactive: -0.818.
Then CCUAUCUGGCUUCUGUUAATT against Bin1, with inactive: -0.399; and GGUGGUUACCAUCUUACUUTT against Trhr, with inactive: 2.04; and AGACCUUGAGAACAUUCUUTT against Nkx2-6, with inactive: -1.74.
Then GGAUCUCGAAGUUACUGCATT against Dnajc5b, with inactive: -0.0865.
Regarding GGACAAAGAGUGAAGCCAGTT against Reg4, the z-score is inactive: -0.505.
The value for GGUCUUUGCUACCAACCUGTT against Fignl1 was inactive: 2.12; that for CCAGUAGUAUUUAUUGCUUTT against Tcf7l2 was inactive: 1.36.
The value for GGAAAUUGCUAUUGCUUCATT against Olfr837 was inactive: 0.086; that for GGCCGUGAUCUUGGAAUAUTT against Pop4 was inactive: -0.0988; that for GCUCUUUGGUCGAGAACCATT against Mup5 was inactive: -0.139.
Then “GCCUUGGUAUGUUUCUAUUTT against 9330158F14Rik”, with inactive: 2.88; and GGUGAUGGUGUAUGUUGCUTT against Olfr309, with inactive: 1.38.
As to GGGAAGUCUGGACAAUAUGTT against C79127, the z-score was inactive: -1.14.
The value for GAUGGUCAUUGAUGUCCUUTT against Rps24 was inactive: -2.95; that for “GGACAUUUCUUCUGUUACCTT against A330049M08Rik” was inactive: 0.133; that for GGAGAAUCCUUCCUUGUUUTT against Il2rg was inactive: 0.522.
For CCCUCCACAGAUGAACACCTT against Lgals4, the z-score was inactive: 0.139.
The value for AAAGGACUGCCUAAGACAATT against V1rh11 was inactive: -0.00751; that for GGAAAACAUCCCUUUCGCATT against 1-Sep was inactive: 0.505; that for CCCAAAAUACAUCAUCAAUTT against Psmc2 was inactive: 0.486.
As to CGCCAGGUAGUGAUAUCAATT against AI427100, the z-score was inactive: 2.53.
Then GGAAUGAGAAGGAAAAGGUTT against Arpc4, with inactive: 0.84; and GCUCUGUGCACUUAAGAGATT against Mbd3l2, with inactive: -0.203.
Then GGAUGGCUCUAUGCCAAGATT against Mrps27, with inactive: -0.0945; and GCACCUCUCUACAUUACUGTT against MGC30332, with inactive: -2.75.
The value for CCUAGAGGAAGACUUAUGUTT against Fhl2 was inactive: -0.471; that for GGAUCACUCCAGGAAGCAATT against Pdlim3 was inactive: -1.66; that for “GGGUCAAUGGUAUUCCCAGTT against 4932411K12” was inactive: -0.177.
Turning to GGCAGCGAAAAGUCAGAUGTT against Sars1, the z-score is inactive: -1.51.
For CCUGUCAGUCCAAUCAAUUTT against Ldlr, the z-score is inactive: 0.973.
Then GCACUCAAGACCUGUAUGATT against Cldn18, with inactive: 0.862; and “GGUUCUGUACCAAUGAGUCTT against 2310007H09Rik”, with inactive: -0.142; and GGUUGUUUGGAAAUCAAAUTT against Crisp3, with inactive: -1.31.
As for GGCAUGACUGGACUGAAAATT against Ythdf3, the z-score is inactive: -1.81.
Then “GGACAUAAUUCUUUCCGUGTT against 2410075D05Rik”, with inactive: -0.0671; and GUUCCUCUUCGUCAGCACATT against Gja4, with inactive: 0.717; and GGGUUCAGCAAUUUCAGCATT against Zfp509, with inactive: 0.362.
On to GCUUAUGAUGAACAAGCCCTT against Aplra1, for which the z-score is inactive: 0.51.
The value for GCUGCUUCCUCCUCAUUCUTT against Olfr934 was inactive: 1.26.
As for “CCCAUGGAAUGAAAACAACTT against A430041E03”, the z-score was inactive: 1.18.
Regarding GCAGAACUCUGGAAUCAAGTT against Perld1, the z-score was inactive: -1.34.
As to CCCUCUUAAGACAUGCAGGTT against Cltb, the z-score was inactive: 0.432.
The value for “GGUCAUUGAAGUGCAAGCCTT against 4931406C07Rik” was inactive: 0.0525; that for “GCCUUUUCAAAACACUUUCTT against 8430426H19Rik” was inactive: 1.12; that for GGAAGUGGAAUUCUUCAGUTT against Rap1gds1 was inactive: 0.97.
On to GUUUCCUUGUGCUAAUGUUTT against Olfr1199, for which the z-score is inactive: 1.03.
Take GGGCAAAGUUGAAUAUCUGTT against Cbx7: the z-score was inactive: -0.172.

The record behind these values is PubChem BioAssay AID1347423 (Functional Genomics Laboratory (NCATS/FGL), 2020).
